From article PMC8874921
For at least one entry, the source does not settle the construct or the ends of the probe. Results from cells or extracts need not show a direct contact. Weaker means in comparison with the reference protein, sequence or condition of that experiment. At least one verdict rests on a figure or table, not on a statement of the authors.

How the values were obtained:
[1] = tested on: wt MBD2 displayed; test: flow cytometry display; conditions: FACS display: PBS with 0.1% BSA, protein on the cell surface, protein details: AIDA-I autotransporter, label: 5' BtnTg, phycoerythrin
[2] = tested on: wt MBD3 displayed; test: flow cytometry display; conditions: low affinity, separated from MBD2; 5mC in both strands; FACS display: PBS with 0.1% BSA; protein on the cell surface; protein details: AIDA-I autotransporter; label: 5' BtnTg, phycoerythrin

Sequence | binding result [1] | binding result ([1]; 0.1% BSA block in selections, 5mC in both strands) | binding result [2]
AAAAAAAAAAACGAAAAAAAAAAA (double strand) [C/C FACS probe] | binds more weakly | – | –
AAAAAAAAAAACGAAAAAAAAAAA (double strand) [mC/mC FACS probe] | – | binds | binds more weakly
